The target of test [1] is T1, Biotinylated AF9, C-terminal 368 aa of human AF9 made by coupled in vitro transcription and translation (human) (UniProt P42568).
T1 sequence (chain, Biotinylated (positions not stated)): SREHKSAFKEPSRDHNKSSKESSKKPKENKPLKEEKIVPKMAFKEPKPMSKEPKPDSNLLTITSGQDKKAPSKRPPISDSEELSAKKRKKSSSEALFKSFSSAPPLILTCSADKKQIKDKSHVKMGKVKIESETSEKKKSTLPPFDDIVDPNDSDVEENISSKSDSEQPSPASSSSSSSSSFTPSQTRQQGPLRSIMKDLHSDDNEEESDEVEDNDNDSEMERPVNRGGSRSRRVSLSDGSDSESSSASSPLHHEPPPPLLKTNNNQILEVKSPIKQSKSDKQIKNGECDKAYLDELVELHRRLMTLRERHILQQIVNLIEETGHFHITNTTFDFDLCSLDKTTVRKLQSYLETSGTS
Description: GST pull-down, biotinylated AF9 on immobilized GST-mBCoR(925-1759).

The target of test [2] is T1, Biotinylated AF9, C-terminal 368 aa of human AF9 made by coupled in vitro transcription and translation (human). Description: GST pull-down, biotinylated AF9 on immobilized GST-MPc3(202-362).

Results are given in words; binding and its absence hold for the method and conditions named. In cells and extracts the contact can be indirect. Some entries that bind do so weakly or less than the wild type. Where a sequence is shown, tags or fusion partners need not be part of it.

B1: glutathione-S-transferase (GST) fused to amino acids 925-1759 of mBCoR (protein, not shown: a dimerising Fc or GST)
chain: DPKPFCVGGAPPNMDVTPAYTKEGTDEAESNDGKVLKPKPSKLAKRIANSAGYVGDRFKCVTTELYADSSQLSREQRALQMEGLQEDSILCLPAAYCERAMMRFSELEMKEREGSHPATKDSEVCKFSPADWERLKGNQEKKPKSVTLEEAIADQNDSERCEYSTGNKHDLFEAPEDKDLPVEKYFLERPPVSEPPSDQGVVDTPHSPTLRLDRKRKLSGDSTHTETAVEELAEDPLKAKRRRISKDDWPEREMTNSSSNHLEDPHCNELTNLKVCIELTGLHPKKQRHLLHLRERWEQQVSAAESKPGRQSRKEVAQAVQPEVTSQGTNITEEKPGRKKAEAKGNRGWSEESLKSCDNEQGLPVLSGSPPMKSLSSTNASGKKQTQPSCTPASRLPAKQQKIKESQKTDVLCTGEDEDCQAASPLQKYTDNIEKPSGKRLCKTKHLIPQESRRSLQITGDYYVENTDTKMTVRRFRKRPEPSSDYDLSPPAKQEPKPFGRLQQLLPATQATQLPRSNSPQETTQSRPMPPEARRLIVNKNAGETLLQRAARLGYEEVVLYCLENKVCDVNHRDNAGYCALHEACARGWLNIVRHLLEYGADVNCSAQDGTRPLHDAVENDHLEIVRLLLSYGADPTLATYSGRTIMKMTHSELMEKFLTDYLNDLQGRSEDDTSGAWEFYGSSVCEPDDESGYDVLANPPGPEDPDEEEDTYSDLFEFEFAESSLLPCYNIQVSVAQGPRNWLLLSDVLKKLKMSSRIFRSNFPNLEIVTIAEAEFYRQVSTSLLFSCPKDLEAFNPESKELLDLVEFTNELQTLLGSSVEWLHPSDTGHENYW
Turning to B1, the binding result in test [1] was “binds”.

B2: glutathione-S-transferase (GST) fused to amino acids 202-362 of MPc3 (protein, not shown: a dimerising Fc or GST)
chain: RKLDETSSGTGKFPAGHSVIQLARRQDSDLVQYGVTSPSSAEASSKLAVDTFPARVIKHRAAFLEAKGQGALDPGGARVRHSSGTPASVGSLYRDMGAQGGRPSLIARIPVARILGDPEEESWSPSLTNLEKVVVTDVTSNFLTVTIKESNTDQGFFKEKR
With B2, the binding entry in test [2] is recorded as “binds”.
